Measured data: PubChem BioAssay AID1259308 (NCATS, 2017)
In all, the deposit lists about 59,000 reagents; shown is an unselected part. About 1,510 of all reagents (2.6%) count as active. 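Calls use total luciferase alone and ignore viability, so some active siRNAs may act by altering cell number.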

- Test: 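Genes whose loss raises luciferase production in HEK293 cells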 (primary screen)
- System: human HEK293 embryonic kidney cells stably expressing firefly luciferase (HEK-CMV-Luc2-Hygro)
- Reagent: single siRNA against human genes, 0.8 pmol siRNA per well
- Time to read-out: 72 h
- Measurement: 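Luciferase light (ONE-Glo) measured on one replicate plate set and viability (CellTiter-Glo) on the other, scaled to a negative control siRNA, with robust z-scores and luciferase per cell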
- Scale: total luciferase, z-score and total luciferase, % of control: higher = more reporter protein produced; luciferase per cell, z-score: higher = more reporter output per viable cell; viable cells, % of control: higher = more viable cells
- Active means: 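Active when the median/MAD z-score for overall luciferase is greater than 3; a gene was taken forward for validation with new siRNAs if at least two of its three siRNAs passed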
- Calls: active = raised luciferase; inactive = no rise

gene knocked down,PubChem SID,"total luciferase, z-score","total luciferase, % of control","luciferase per cell, z-score","viable cells, % of control",activity call
HSPE1 (heat shock protein family E (Hsp10) member 1),SID160775417,1.21,106,1.8,73.8,inactive
HSPE1 (heat shock protein family E (Hsp10) member 1),SID160775418,1.68,115,1.16,95.1,inactive
HSPE1 (heat shock protein family E (Hsp10) member 1),SID160775419,2.88,139,2.48,80.8,inactive
CDK19 (cyclin dependent kinase 19),SID160735443,-1.07,60.7,-1.48,100,inactive
CDK19 (cyclin dependent kinase 19),SID160735444,3.39,149,2.54,85.4,active
CDK19 (cyclin dependent kinase 19),SID160735446,-2.42,33.7,-2.29,68.9,inactive
LYG2 (lysozyme g2),SID160762215,-0.185,78.2,-0.37,96.3,inactive
LYG2 (lysozyme g2),SID160762216,0.424,90.3,0.704,83.9,inactive
LYG2 (lysozyme g2),SID160762218,-0.0936,80,0.0293,88.7,inactive
PSMA4 (proteasome 20S subunit alpha 4),SID160715176,-0.862,64.7,0.492,63.6,inactive
PSMA4 (proteasome 20S subunit alpha 4),SID160715177,0.533,92.5,0.804,83.6,inactive
PSMA4 (proteasome 20S subunit alpha 4),SID160715178,-0.364,74.6,0.462,73.9,inactive
"ALG8 (ALG8 alpha-1,3-glucosyltransferase)",SID160748544,0.946,101,1.14,83.4,inactive
"ALG8 (ALG8 alpha-1,3-glucosyltransferase)",SID160748545,-0.715,67.7,-0.407,84.2,inactive
"ALG8 (ALG8 alpha-1,3-glucosyltransferase)",SID160748546,-1.55,51,-1.14,77,inactive
"B4GALT3 (beta-1,4-galactosyltransferase 3)",SID160720629,-0.573,70.5,-0.272,84.6,inactive
"B4GALT3 (beta-1,4-galactosyltransferase 3)",SID160720630,-1.15,59.1,-1.22,91,inactive
"B4GALT3 (beta-1,4-galactosyltransferase 3)",SID160720631,-0.0702,80.5,-0.444,101,inactive
CCL5 (C-C motif chemokine ligand 5),SID160716447,-0.728,67.4,-0.778,92.4,inactive
CCL5 (C-C motif chemokine ligand 5),SID160716448,0.223,86.3,0.129,93.2,inactive
CCL5 (C-C motif chemokine ligand 5),SID160716449,-2.5,32.1,-2.58,70.8,inactive
CCR7 (C-C motif chemokine receptor 7),SID160745039,-1.17,58.7,-0.562,76,inactive
CCR7 (C-C motif chemokine receptor 7),SID160745049,0.0771,83.4,-0.422,104,inactive
CCR7 (C-C motif chemokine receptor 7),SID160745060,-0.726,67.5,-1.03,98.8,inactive
TRMO (tRNA methyltransferase O),SID160740952,0.658,95,1.02,81.1,inactive
TRMO (tRNA methyltransferase O),SID160740954,0.358,89,0.219,93.9,inactive
TRMO (tRNA methyltransferase O),SID160740955,1.66,115,1.82,79.4,inactive
LOC100128762 (TERF2 interacting protein pseudogene),SID160725462,0.046,82.8,-0.675,111,inactive
LOC100128762 (TERF2 interacting protein pseudogene),SID160733438,-0.385,74.2,-0.571,96.4,inactive
LOC100128762 (TERF2 interacting protein pseudogene),SID160768135,2.44,130,2.26,80.3,inactive
PBK (PDZ binding kinase),SID160744568,-1.36,54.8,-1.76,97.3,inactive
PBK (PDZ binding kinase),SID160744569,-0.305,75.8,-0.595,99.1,inactive
PBK (PDZ binding kinase),SID160744570,-0.438,73.2,-0.334,89.3,inactive
CACNB3 (calcium voltage-gated channel auxiliary subunit beta 3),SID160735488,0.22,86.3,0.475,85.1,inactive
CACNB3 (calcium voltage-gated channel auxiliary subunit beta 3),SID160735499,-0.0723,80.4,-0.294,97.1,inactive
CACNB3 (calcium voltage-gated channel auxiliary subunit beta 3),SID160735509,-1.29,56.2,-1.12,84.2,inactive
ZYX (zyxin),SID160719349,2.59,133,1.72,94.8,inactive
ZYX (zyxin),SID160719350,0.55,92.8,0.926,81.3,inactive
ZYX (zyxin),SID160731902,-0.638,69.2,-0.888,97.7,inactive
ITPKC (inositol-trisphosphate 3-kinase C),SID160750312,2.36,129,1.86,88.2,inactive
ITPKC (inositol-trisphosphate 3-kinase C),SID160750313,0.553,92.9,-0.3,112,inactive
ITPKC (inositol-trisphosphate 3-kinase C),SID160750314,-1.3,56,-1.6,95.3,inactive
ZNF587 (zinc finger protein 587),SID160732046,0.26,87.1,0.112,94.5,inactive
ZNF587 (zinc finger protein 587),SID160752925,0.0252,82.4,-0.155,95.9,inactive
ZNF587 (zinc finger protein 587),SID160752926,-0.14,79.1,-0.397,98.1,inactive
RAP1GAP (RAP1 GTPase activating protein),SID160715652,-0.885,64.3,-0.886,90.7,inactive
RAP1GAP (RAP1 GTPase activating protein),SID160715653,2.83,138,2.33,83.5,inactive
RAP1GAP (RAP1 GTPase activating protein),SID160715654,1.88,119,0.775,109,inactive
CLEC17A (C-type lectin domain containing 17A),SID160765874,0.282,87.5,0.19,93,inactive
CLEC17A (C-type lectin domain containing 17A),SID160765875,0.15,84.9,-0.137,98.3,inactive
CLEC17A (C-type lectin domain containing 17A),SID160765876,1.19,106,1.29,83.9,inactive
SLC49A4,SID160752954,-1.6,50.1,-1.2,76.7,inactive
SLC49A4,SID160752955,-0.848,65,-1.13,97.8,inactive
SLC49A4,SID160752956,-1.97,42.7,-2.07,82.2,inactive
CXorf65 (chromosome X open reading frame 65),SID160732593,1.13,104,2.2,65.3,inactive
CXorf65 (chromosome X open reading frame 65),SID160759697,-1.43,53.4,-1.13,80.4,inactive
CXorf65 (chromosome X open reading frame 65),SID160759698,1.72,116,1.75,81.8,inactive

Entries above whose gene name starts with T or t:
gene knocked down,PubChem SID,"total luciferase, z-score","total luciferase, % of control","luciferase per cell, z-score","viable cells, % of control",activity call
TRMO (tRNA methyltransferase O),SID160740952,0.658,95,1.02,81.1,inactive
TRMO (tRNA methyltransferase O),SID160740954,0.358,89,0.219,93.9,inactive
TRMO (tRNA methyltransferase O),SID160740955,1.66,115,1.82,79.4,inactive
